Assay results published in PubChem BioAssay AID493076 (National Center for Advancing Translational Sciences (NCATS), 2011).
The shares of active, inactive and inconclusive entries below differ from those in the screen. Potencies beside an inconclusive call are fits to weak or partial responses and may not hold up. The source made the active and inactive calls. Calls follow the shape of the dose curve; as a rule, active = well fitted curve in the direction sought with a large enough effect; inconclusive = small, poorly fitted or top-dose-only effect, or effect the other way, or another doubt; inactive = no such curve, though single readings can be large or run the other way.

Sequences of proteins named here, by UniProt entry; tags and fusion partners are left off. A change or cut given only in a name is not applied to a line headed by its entry.
UniProt P34981: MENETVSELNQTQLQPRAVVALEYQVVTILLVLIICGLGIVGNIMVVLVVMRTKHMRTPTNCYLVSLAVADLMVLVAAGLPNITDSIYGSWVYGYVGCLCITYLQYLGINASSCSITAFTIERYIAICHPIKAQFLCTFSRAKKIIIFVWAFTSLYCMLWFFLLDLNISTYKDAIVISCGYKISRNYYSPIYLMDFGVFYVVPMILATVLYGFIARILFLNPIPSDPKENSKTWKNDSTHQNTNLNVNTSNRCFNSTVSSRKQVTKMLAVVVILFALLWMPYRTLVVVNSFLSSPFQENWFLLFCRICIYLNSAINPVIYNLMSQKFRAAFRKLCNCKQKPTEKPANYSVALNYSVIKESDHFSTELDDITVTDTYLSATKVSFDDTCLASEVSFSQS

The compounds below were run against Thyrotropin-releasing hormone receptor (Homo sapiens) (UniProt P34981) (assay: qHTS for Small Molecule Agonists and Allosteric Enhancers of Human TRH Receptor: Confirmation Screen for Enhancers). Settings: TRH receptor cell assay, enhancer confirmation qHTS; series mostly up to 46.1 µM; activity change, negative = inhibition: at the top concentration.
Outline: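 TRHR-expressing cells were plated overnight in 10% serum medium, loaded with fluo-8 calcium dye at room temperature, and read kinetically on an FDSS (Ex480/Em530). After compound pin-transfer and an agonist read, TRH at EC20 (10 nM final) was added to score potentiation.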
For activity change, negative = inhibition in this document: 0% is about no effect.

Activity change, negative = inhibition, inactive:
Nc1[nH]nc2nc3ccccc3cc12 6.64%, Cc1nc(S(=O)(=O)N2CCN(C3c4ccccc4-c4ccccc43)CC2)cn1C 7.69%, COc1ccc(/C=C2\SC(=O)N(CCC(=O)Nc3ccccc3)C2=O)cc1OC -3.49%

Potency, inconclusive:
Cn1nnnc1SCc1c(F)cccc1F 6.51 µM [activator, partial curve, poor fit], Cc1cccc2cc3c(N)c(C(=O)N4CCc5ccccc54)sc3nc12 7.31 µM [activator, partial curve, poor fit], O=C(Nc1ccccc1C(=O)Nc1ccccc1)c1ccccc1F 6.51 µM [activator, single point], Cc1ccccc1NC(=S)N(Cc1cccnc1)Cc1ccccc1Cl 0.291 µM [activator, full curve, poor fit], COc1ccc([N+](=O)[O-])cc1NC(=O)c1cn(-c2ccc(Cl)cc2)c(=O)c2ccccc12 6.51 µM [activator, single point]
